In PubChem BioAssay AID2549 (National Center for Advancing Translational Sciences (NCATS), 2010):
Screen size: about 240,000 compounds; about 1,300 (0.54%) were called active. The inconclusive results got no clear call from the source; some entries with a clear call stand among them for comparison. The call rests on the fitted dose curve; in most records, active means well fitted inhibition curve with a large enough effect; inconclusive means small, poorly fitted or top-dose-only effect; inactive means flat fitted curve, though single readings scatter. Where the call is inconclusive, the potency comes from a doubtful curve fit. A structure can be active in one record and inactive in another.

Chains of the proteins cited; added tags and fusions are not shown. Lines headed by an entry give the natural chain unless they say otherwise; changes in a name come on top.
UniProt P46063: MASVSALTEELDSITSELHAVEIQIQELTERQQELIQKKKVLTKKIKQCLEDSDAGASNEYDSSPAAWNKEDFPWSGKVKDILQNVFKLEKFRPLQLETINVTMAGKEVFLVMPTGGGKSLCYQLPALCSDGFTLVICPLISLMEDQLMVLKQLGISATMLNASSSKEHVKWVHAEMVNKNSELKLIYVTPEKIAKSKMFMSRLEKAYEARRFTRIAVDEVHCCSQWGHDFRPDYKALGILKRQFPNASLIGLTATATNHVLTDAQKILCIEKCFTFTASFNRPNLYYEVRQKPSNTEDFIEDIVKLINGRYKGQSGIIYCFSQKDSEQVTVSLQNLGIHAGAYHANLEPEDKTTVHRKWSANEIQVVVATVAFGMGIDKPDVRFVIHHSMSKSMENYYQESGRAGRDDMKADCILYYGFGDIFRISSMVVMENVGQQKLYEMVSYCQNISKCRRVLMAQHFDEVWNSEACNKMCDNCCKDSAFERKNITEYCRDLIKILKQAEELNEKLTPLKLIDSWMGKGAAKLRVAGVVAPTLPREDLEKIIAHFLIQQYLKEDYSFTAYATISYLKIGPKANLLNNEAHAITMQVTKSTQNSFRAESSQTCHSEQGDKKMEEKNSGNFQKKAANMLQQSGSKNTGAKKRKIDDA

These compounds were tested against ATP-dependent DNA helicase Q1 (Homo sapiens) (UniProt P46063) (assay: qHTS Assay for Inhibitors of RecQ-Like Dna Helicase 1 (RECQ1)). Settings: RECQ1 DNA unwinding, red fluorescence kinetic read; activity, negative = inhibition: at 57.3 µM (top of the series); series mostly up to 57.3 µM.
Summary of the method: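 50 nM RECQ1T1 preincubated 15 min with compound in Tris pH 8.0 buffer with MgCl2, DTT, Tween-20 and 2.5 ug/ml poly(dI-dC); started with 200 nM TAMRA/BHQ-2 forked duplex and 2 mM ATP. Unwinding read as fluorescence (525/598 nm), two reads 2 h apart.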
Further: nearly all actives have a fitted effect of over 30% in size.
Potency means the concentration at half of the fitted maximal effect.
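Wherever activity, negative = inhibition is given: plate controls were vehicle for no effect and no enzyme for full effect.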

Compound	Potency	activity, negative = inhibition
CCCC(=O)NCCc1c(I)[nH]c2ccc(OC)cc12	inactive	
COCCn1c(-c2ccc(OC)c(OC)c2)nc2ccccc21	inconclusive: 1 µM [inhibitor, full curve, poor fit]	
O=C(COC(=O)C12CC3CC(CC(C3)C1)C2)NCCc1ccccc1	inconclusive: 0.891 µM [inhibitor, single point]	
Cc1ccc(S(=O)(=O)Nc2ccc(Cl)cc2)cc1NC(=O)Cn1cnc2c1c(=O)n(C)c(=O)n2C	inconclusive: 10 µM [inhibitor, single point]	
CCSc1nnc(NC(=O)C2Cc3ccccc3CN2C(=O)c2ccco2)s1 (configuration not stated)	inactive	
O=C(O)COc1ccccc1/C=N/NC(=O)c1cc(-c2ccc(Cl)cc2)nc2ccccc12	inactive	
Cc1cc(C(=O)CSc2nnc(-c3cccnc3)n2-c2ccccc2F)c(C)n1CC1CCCO1 (configuration not stated)	active: 35.5 µM	
Cc1cc(O)cc(O)c1C(=O)OC1(C)C(=O)C=C2C=C(/C=C/C(=O)O)OC=C2C1=O (configuration not stated)	active: 28.2 µM	
Cc1cccc(NC(=O)c2ccc3ccccc3n2)c1C	inconclusive: 39.8 µM [inhibitor, single point]	
COc1ccc(-c2coc3cc(O)ccc3c2=O)c(OC)c1O	inactive	
Nc1nnnn1CC(=O)N/N=C/c1cc([N+](=O)[O-])ccc1O	inactive	
Cc1ccc(Nc2nc3nonc3nc2N(C)C)cc1	inconclusive: 31.6 µM [inhibitor, single point]	
CC(C)=C1C(=O)NN(c2ccc(F)c(Cl)c2)C1=O	active: 31.6 µM	
O=C(NC1CCCC1)c1ccc2nc(-c3ccco3)c(-c3ccco3)nc2c1	inconclusive: 28.2 µM [inhibitor, single point]	
COc1ccc(OC)c(C2=C/C(=C/c3ccccn3)C(=O)O2)c1	inconclusive: 39.8 µM [inhibitor, single point]	
CCOc1cc(/C=C2\SC(=O)N(CC(=O)Nc3ccccc3F)C2=O)cc([N+](=O)[O-])c1O	inactive	
COc1ccc(OC)c(CN2CCN(C(=O)c3cccs3)CC2)c1	inconclusive: 4.47 µM [inhibitor, partial curve, poor fit]	
O=C(O)CSc1cc(NS(=O)(=O)c2cccc([N+](=O)[O-])c2)c2ccccc2c1O	inactive	
CC1(C)Cc2c(c(-c3ccco3)nc3sc4c(NCCCO)ncnc4c23)CO1	inactive	
O=C(Nc1ccc2nc(-c3cccnc3)[nH]c2c1)c1ccco1	inconclusive: 25.1 µM [inhibitor, single point]	
Cc1cc(/C=C2\SC(=S)NC2=O)c(C)n1-c1ccc(O)cc1	inconclusive: 3.55 µM [inhibitor, single point]	
O=C(OCc1ccccc1)[C@@H]1COC(c2ccc(Br)cc2)=N1	inactive	
O=C1CSC(=S)N1/N=C/c1ccc(Cl)c([N+](=O)[O-])c1	inconclusive: 35.5 µM [inhibitor, single point]	
O=C(CN(Cc1ccco1)C(=O)CNS(=O)(=O)c1ccc(F)cc1)NCCc1ccccc1	inconclusive: 6.31 µM [inhibitor, single point]	

Compound	Potency	activity, negative = inhibition
O=c1c2c([nH]c3ccccc13)C(=C1CCCC1)CC2	inconclusive: 39.8 µM [inhibitor, single point]	
COc1ccc(C(=O)NNC(=S)NC(=O)c2ccco2)cc1	inconclusive: 3.55 µM [inhibitor, partial curve]	
O=c1nc2s/c(=C\c3ccco3)c(=O)n2nc1Cc1ccccc1	active: 5.01 µM	
Nc1nc(SCC(=O)Nc2ccc([N+](=O)[O-])cc2Br)n[nH]1	inconclusive: 0.891 µM [inhibitor, partial curve, poor fit]	
CCOC(=O)OCC1OC(C#Cc2ccc(C)cc2C)C=CC1OC(=O)OCC (configuration not stated)		inactive: 17% [at 11.5 µM]
CCn1c(SCC(=O)N/N=C/C(C)=C\c2ccco2)nnc1-c1ccccc1	inconclusive: 39.8 µM [inhibitor, single point]	
CC(=O)n1cc([C@H]2C=C(C(=O)Nc3ccccc3)O[C@@H](OCc3ccc(CO)cc3)C2)c2ccccc21	active: 0.355 µM	
COCC1CCN(Cc2cn(-c3ccccc3F)nc2-c2cc(C)sc2C)CC1	inconclusive: 39.8 µM [inhibitor, single point]	
CCOc1ccc(Cl)cc1S(=O)(=O)n1nnc2ccccc21	inconclusive: 0.0282 µM [inhibitor, full curve, poor fit]	
COc1ccc(-c2csc(NC(=S)NC(=O)c3cccs3)n2)cc1Br	inactive	
Cc1ccccc1NC(=S)N1CCN(Cc2ccccc2)CC1	inconclusive: 0.794 µM [inhibitor, single point]	
CC1C(=O)NN=C1C(=O)N/N=C\c1ccc(O)cc1O (configuration not stated)	inconclusive: 39.8 µM [inhibitor, single point]	
O=C1C(=Cc2ccc(Br)o2)C(=O)c2ccccc21	active: 8.91 µM	
COc1cc(OC)c(-c2c3cc(O)c(=O)cc-3oc3cc(O)c(O)cc23)cc1OC	active: 10 µM	
COc1ccccc1-c1cc(NCc2cnc(C)cn2)ncn1	inactive	
COc1cc(/C=C2/SC(=Nc3ccc(O)cc3)NC2=O)ccc1O	inactive	
O=c1c(O)c(-c2ccccc2)oc2cccc(O)c12	inactive	
O=C(CCn1nnc2ccccc2c1=O)NCC1CCC(C(=O)O)CC1 (configuration not stated)	inactive	
Cc1cc(C(=O)NNC(=S)NC(=O)/C=C/c2ccccc2Cl)n[nH]1	inactive	
O=C1CC(c2ccco2)CC(O)=C1C=Nc1cc(Cl)cc(Cl)c1 (configuration not stated)	inconclusive: 39.8 µM [inhibitor, single point]	
Cc1ccc(CN=C(Nc2ccccc2)NC2CCCCC2)cc1	inconclusive: 0.141 µM [inhibitor, full curve, poor fit]	
O=C1C=CC2=C3c4cc(O)c(O)cc4C[C@@]3(O)COC2=C1	active: 20 µM	
C/C(=N\NC(=O)CC(C)C)c1c(C(F)(F)F)[nH]n(-c2nc3ccccc3s2)c1=O	inconclusive: 3.16 µM [inhibitor, partial curve]	
COC(=O)c1ccc(/C=N/Nc2nc(-c3ccc(Cl)cc3Cl)cs2)cc1	inactive	

Compound	Potency	activity, negative = inhibition
CN1/C(=C\C(=O)COC(=O)c2ccc(O)c(O)c2)C(C)(C)c2ccccc21	active: 25.1 µM	
CCC1=NN2C(=N)/C(=C\c3ccc(OCc4cc(=O)n5nc(CC)sc5n4)c(OC)c3)C(=O)N=C2S1	active: 7.08 µM	
N#CC1=C(N)N(c2ccc(F)cc2)C2=C(C1c1ccc(O)cc1)S(=O)(=O)CC2 (configuration not stated)	inconclusive: 0.891 µM [inhibitor, full curve]	
O=C(NCc1ccccn1)C1CCN(S(=O)(=O)c2cc(Cl)ccc2Cl)CC1	inconclusive: 39.8 µM [inhibitor, single point]	
CN(c1ccccc1)c1ccc(/C=c2\s/c(=C(/C#N)C(=O)C(C)(C)C)n(Cc3ccco3)c2=O)cc1	active: 17.8 µM	
O=C(CCn1nnc2ccccc21)Nc1nnc(Cc2ccccc2)s1	inconclusive: 15.8 µM [inhibitor, partial curve]	
CCCCCC(O)c1cccc(OCc2ccc3ccccc3n2)c1 (configuration not stated)	active: 28.2 µM	
Oc1cccc(C=NCc2ccccc2)c1O	inactive	
CO[C@H]1COC(=O)C/C=C\[C@H](C)[C@@H](OC)COC(=O)[C@@H](C)NC(=O)C/C=C\[C@@H]1C		inactive: -0.723% [at 11.5 µM]
O=C(Nc1cc(C(F)(F)F)ccc1Cl)C(Sc1n[nH]c(=O)[nH]c1=O)c1ccccc1 (configuration not stated)	inconclusive: 0.282 µM [inhibitor, partial curve, poor fit]	
Cc1cc(C=C2C(=O)CCCC2=O)c(C)n1-c1ccccc1	inconclusive: 35.5 µM [inhibitor, single point]	
CC1CCN(CCCn2c(=S)[nH]c3c(sc4ccc([N+](=O)[O-])cc43)c2=O)CC1	inconclusive: 22.4 µM [inhibitor, partial curve, poor fit]	
Cc1ccc(C(=O)Nc2nc(-c3cc(Cl)sc3Cl)cs2)cc1	inconclusive: 0.158 µM [inhibitor, full curve, poor fit]	
CC(=O)OCC1OC(C#Cc2ccc(C)cc2C)C=CC1OC(C)=O (configuration not stated)		inactive: 14.3% [at 11.5 µM]
c1csc(-c2nn3c(-c4ccncc4)nnc3s2)c1	inactive	
CN1CC=C2C(C#N)=C(N)C(C#N)(C#N)[C@H](c3ccoc3)[C@H]2C1	inconclusive: 39.8 µM [inhibitor, single point]	
CCN1/C(=C\c2ccc3cc(C)ccc3[n+]2CC)Sc2cc(C)c(C)cc21	inconclusive: 39.8 µM [inhibitor, single point]	
COc1cccc(CN(C)CC(=O)Nc2sc3c(c2C#N)CCC3)c1OC	inconclusive: 39.8 µM [inhibitor, single point]	
O=C(Nc1cccc(S(=O)(=O)N2CCOCC2)c1)c1c2c(nc3ccccc13)CCC2	inconclusive: 39.8 µM [inhibitor, single point]	
O=C(COc1cccc(C(F)(F)F)c1)N1CCN(c2ccc(O)cc2)CC1	inactive	
CC(Sc1nnnn1C)C(=O)Nc1ccccc1 (configuration not stated)	inconclusive: 8.91 µM [inhibitor, single point]	
Cc1cc(/C=N/NC(=O)c2cccs2)c(C)n1-c1cnccn1	inconclusive: 7.08 µM [inhibitor, single point]	
CCOC(=O)C1=C(N)n2c(s/c(=C\c3ccco3)c2=O)=C(C(=O)OCC)C1c1ccco1 (configuration not stated)	inconclusive: 39.8 µM [inhibitor, single point]	
CCn1c(CSc2nc3ccccc3s2)nnc1SCC(=O)c1ccc(O)c(O)c1	active: 7.94 µM	

4 of these compounds in a different format:
CO[C@H]1COC(=O)C/C=C\[C@H](C)[C@@H](OC)COC(=O)[C@@H](C)NC(=O)C/C=C\[C@@H]1C
  activity, negative = inhibition: inactive: -0.723% [at 11.5 µM]
O=C(Nc1cc(C(F)(F)F)ccc1Cl)C(Sc1n[nH]c(=O)[nH]c1=O)c1ccccc1 (configuration not stated)
  Potency: inconclusive: 0.282 µM [inhibitor, partial curve, poor fit]
Cc1cc(C=C2C(=O)CCCC2=O)c(C)n1-c1ccccc1
  Potency: inconclusive: 35.5 µM [inhibitor, single point]
CC1CCN(CCCn2c(=S)[nH]c3c(sc4ccc([N+](=O)[O-])cc43)c2=O)CC1
  Potency: inconclusive: 22.4 µM [inhibitor, partial curve, poor fit]
